# Among all 390,000 compounds or so, about 760 (0.19%) were called active. Inconclusive results, whose numbers are uncertain, are shown with a selection of clear calls. Calls follow the shape of the dose curve; as a rule, active = well fitted inhibition curve with a large enough effect; inconclusive = small, poorly fitted or top-dose-only effect; inactive = flat fitted curve, though single readings scatter. A potency beside an inconclusive call is a rough fit, not a confirmed value.
# Assay: qHTS for Inhibitors of Vif-A3F Interactions: qHTS; also: nearly all actives have a fitted effect of over 65% in size; as to activity, negative = active: % of control where 0% means no effect
# Conditions: HeLa A3F-eYFP + Vif (tagged APOBEC3F with the HIV-1 protein that degrades it), YFP fluorescence increase; series mostly up to 46.1 µM; activity, negative = active: at the top concentration
# Summary of the method: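 HeLa cells stably expressing Vif plus C-terminally eYFP-tagged A3F were seeded, incubated overnight at 37 deg C, dosed with compound, incubated overnight again at 37 deg C. Yellow fluorescence (Ex 488/Em 500-530) reported blocked Vif-mediated A3F-eYFP degradation.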
# Potency is read from the fitted curve at half-maximal effect.
Structure (SMILES),"activity, negative = active",Potency
CCN(CC)CCCNc1nc2ccccc2c2[nH]c3ccc(OC)cc3c12,inactive: 8.19%,–
CCSc1nn2c(=O)c3ccccc3nc2s1,–,"inconclusive: 3.55 µM [inhibitor, single point]"
CCOc1ccc(N=NC2C(=O)N(C(N)=S)N=C2C)cc1 (configuration not stated),–,"inconclusive: 0.631 µM [inhibitor, full curve, poor fit]"
COc1ccccc1N=C1NC(=O)/C(=C/c2ccc(N(C)C)cc2)S1,–,active: 8.91 µM
COc1cc(/C=N/Nc2nc(-c3ccc(S(=O)(=O)N(C)C)cc3)cs2)ccc1O,–,"inconclusive: 35.5 µM [inhibitor, single point]"
CCOc1ccccc1Nc1ccnc2cc(Cl)ccc12,–,"inconclusive: 22.4 µM [inhibitor, single point]"
CCC(C)Sc1nnc(CSc2nc(C)cc(C)n2)n1C (configuration not stated),inactive: -1.42%,–
COc1cccc(N2CC(NC(=O)c3ccc4ccccc4c3)CC2=O)c1 (configuration not stated),–,"inconclusive: 20 µM [inhibitor, single point]"
O=C(NCc1ccccn1)C(=O)Nc1ccccc1,–,"inconclusive: 35.5 µM [inhibitor, single point]"
O=C(CN1C(=O)/C(=C/c2ccc(C(F)(F)F)cc2)Sc2ccccc21)NCCCN1CCOCC1,–,"inconclusive: 25.1 µM [inhibitor, single point]"
c1ccc(-c2cc(-c3nnc4sc(-c5ccccn5)nn34)[nH]n2)cc1,–,"inconclusive: 22.4 µM [inhibitor, single point]"
Cc1onc(NC(=O)c2ccc([N+](=O)[O-])o2)c1Br,–,"inconclusive: 6.31 µM [inhibitor, single point]"
O=C(N/N=C/c1ccc(N2CCCCC2)o1)c1ccccc1,inactive: -0.951%,–
COc1cc(/C=N/N(c2ccccc2)c2ccccc2)ccc1O,–,"inconclusive: 3.16 µM [inhibitor, single point]"
COc1ccc(C(=O)NCCc2nnc3ccc(SCC(=O)Nc4ccccc4)nn23)cc1,–,"inconclusive: 35.5 µM [inhibitor, single point]"
Cc1ccc2c(Sc3ccc(Cl)cc3)c(C(=O)NCCC(C)C)[nH]c2c1,inactive: -2.82%,–
C(=N\Nc1nc2ccccc2s1)/c1ccccn1,–,"inconclusive: 35.5 µM [inhibitor, single point]"
CCCCc1ccc(NC2=NCC(=O)N2CCc2ccccc2)cc1,–,"inconclusive: 14.1 µM [inhibitor, single point]"
CC1CCCCC1NC(=O)NC(=O)COC(=O)c1nccnc1N (configuration not stated),inactive: 1.86%,–
CC(C)C[C@@H](CN1CCC[C@@H]1CN1C(=O)C(=O)NC[C@@H]1Cc1ccccc1)N1C[C@H](Cc2ccccc2)N(CC2CCCCCC2)C(=O)C1=O,–,"inconclusive: 35.5 µM [inhibitor, single point]"
CCOC(=O)c1c(-c2ccc(OC)cc2)cn2ccccc12,–,"inconclusive: 1.12 µM [inhibitor, partial curve, poor fit]"
O=C1CSC(c2ccc([N+](=O)[O-])cc2)N1c1ccc(O)cc1 (configuration not stated),–,"inconclusive: 3.16 µM [inhibitor, partial curve, poor fit]"
CNc1oc(Cc2ccccc2)nc1S(=O)(=O)c1ccccc1,inactive: -4.72%,–

Structure (SMILES),"activity, negative = active",Potency
Cc1ccc(C(=O)CSc2nsc(C)c2C#N)cc1,inactive: -25.9%,–
CC1CC(=O)N(CC(=O)Nc2cccc(F)c2)c2ccccc2S1(=O)=O (configuration not stated),–,"inconclusive: 7.94 µM [inhibitor, partial curve, poor fit]"
CCOC(=O)c1ccccc1Nc1nc2ccc(C)cc2n2nnnc12,–,"inconclusive: 8.91 µM [inhibitor, partial curve]"
CCN1C(=O)CCN(C2CCCC2)c2nc(Nc3ccc(C(=O)NC4CCN(C)CC4)cc3OC)ncc21,–,"inconclusive: 17.8 µM [inhibitor, single point]"
Nc1c(C(=O)NC2CCCC2)sc2nc(-c3cccs3)ccc12,–,"inconclusive: 25.1 µM [inhibitor, single point]"
Cc1cn(-c2cc(C(=O)Nc3ccc(C)c(NC(=O)C(=O)c4c[nH]c5ccccc45)c3)cc(C(F)(F)F)c2)cn1,–,"inconclusive: 11.2 µM [inhibitor, single point]"
CN1CCN(c2ccccc2NC(=O)c2ccc(Br)o2)CC1,inactive: 1.6%,–
CC(=O)CSc1cc(-c2ccccc2)nc2ncnn12,–,"inconclusive: 35.5 µM [inhibitor, single point]"
O=C(/C=C/c1ccco1)N1CCc2ccccc21,–,active: 11.2 µM
Cc1cc(/C=C2\C(=O)NN(c3ccccc3)C2=O)c(C)n1-c1ccccc1O,–,"inconclusive: 17.8 µM [inhibitor, single point]"
CCN(C(=O)COC(=O)/C=C/c1ccc(F)cc1)C1CCCCC1,inactive: -2.48%,–
Cc1ccc(SCc2[nH]nc3c2C2(CCSCC2)C(C#N)=C(N)O3)cc1,inactive: 2.03%,–
CCc1ccc(S(=O)(=O)N/N=C\c2ccc([N+](=O)[O-])o2)cc1,–,"inconclusive: 35.5 µM [inhibitor, single point]"
O=C(N/N=C/C(Br)=C\c1ccccc1)c1ccc2nc[nH]c2c1,–,"inconclusive: 35.5 µM [inhibitor, single point]"
COc1ccc(C2CC(c3ccncc3)=NN2c2ccc(S(N)(=O)=O)cc2)cc1 (configuration not stated),–,active: 11.2 µM
Cc1cccc(NC(=O)Cn2cc([N+](=O)[O-])cn2)n1,–,"inconclusive: 5.62 µM [inhibitor, single point]"
COc1ccc(C(=O)Nc2cccc(OCc3cc(=O)n4c5c(sc4n3)CCCC5)c2)cc1OC,inactive: 0.5%,–
CCCOC(=O)COC(=O)c1ccccc1NC(=O)c1ccccc1,–,"inconclusive: 6.31 µM [inhibitor, single point]"
O=C(/C=C/c1ccc([N+](=O)[O-])s1)N1CCCCC1,–,"inconclusive: 5.62 µM [inhibitor, single point]"
CN(C)C(=O)CCc1ccc2c3c([nH]c2c1)[C@]1(CCC2CCCC2)[C@@H](C(=O)N2CCOCC2)C[C@H](CC(=O)NCCC2=CCCCC2)C(=O)N1CC3,–,"inconclusive: 35.5 µM [inhibitor, single point]"
Cc1nc2ccc3nc(NC(=O)C4COc5ccccc5O4)sc3c2s1 (configuration not stated),–,"inconclusive: 12.6 µM [inhibitor, partial curve, poor fit]"
CCCn1nnc(NC(=S)NC(=O)c2ccc(-c3ccc(Br)cc3)o2)n1,–,"inconclusive: 3.16 µM [inhibitor, partial curve, poor fit]"
O=C(/C=C/c1cccs1)Nc1nc(-c2ccccc2)cs1,inactive: -5.68%,–

Structure (SMILES),"activity, negative = active",Potency
NC(=S)N/N=C\c1ccc(-c2cccc(Cl)c2Cl)o1,–,"inconclusive: 22.4 µM [inhibitor, single point]"
Oc1ccccc1/C=N/NC(=S)NC1CC2CC1C1C=CCC21 (configuration not stated),–,"inconclusive: 3.55 µM [inhibitor, single point]"
CCOc1ccc(NC(=O)/C(C#N)=C\c2ccc(N3CCCC3)c(C)c2)cc1,–,active: 11.2 µM
COc1ccc(NC(=O)COc2ccccc2C(=O)NCC(c2ccccc2)N(C)C)cc1Cl (configuration not stated),inactive: 7.62%,–
Cc1ccc(-c2cn3c(n2)sc2cc(C(=O)NC4CCCCCC4)ccc23)cc1,–,"inconclusive: 6.31 µM [inhibitor, partial curve, poor fit]"
O=C(Nc1cc(S(=O)(=O)Nc2ccc(Cl)cc2)ccc1N1CCCCC1)c1ccc(F)cc1,–,"inconclusive: 11.2 µM [inhibitor, partial curve]"
O=C(Cn1c2c(c(-c3ccccc3Cl)cc1=O)CCC2)NCC1CCCO1 (configuration not stated),inactive: 7.52%,–
COc1ccccc1/C=N/NC(=O)c1cccc2ccccc12,inactive: -18.4%,–
Cc1ccc(-n2ncc(Br)c(Br)c2=O)cc1,inactive: -2.94%,–
CC1=Nc2ccccc2/C1=C/c1sc(=N)n(-c2nccs2)c1O,–,"inconclusive: 15.8 µM [inhibitor, partial curve, poor fit]"
COc1ccc(OC)c(C2c3c(-c4ccc(Br)cc4)n[nH]c3C(=O)N2c2ccc(Cl)cc2)c1 (configuration not stated),–,"inconclusive: 20 µM [inhibitor, partial curve, poor fit]"
CC(C)(C)NC(=O)CSc1nccn1Cc1ccccc1,inactive: -1.07%,–
C[C@@H]1C[C@H]2[C@@H]3CCC4=CC(=O)C=C[C@]4(C)[C@@]3(Cl)[C@@H](O)C[C@]2(C)[C@@]1(OC(=O)c1ccco1)C(=O)CCl,–,"inconclusive: 25.1 µM [inhibitor, single point]"
CCCCCn1c(NC(=O)c2ccco2)c(S(=O)(=O)c2ccc(C)cc2)c2nc3ccccc3nc21,inactive: -2.21%,–
CCOc1ccc(NC(=O)CN(C)C(=O)c2ccc(=O)[nH]c2)cc1OCC,–,"inconclusive: 35.5 µM [inhibitor, single point]"
O=c1c(Cc2c(F)cccc2Cl)c(O)ccn1C1CC1,–,"inconclusive: 7.08 µM [inhibitor, partial curve, poor fit]"
Nc1ccc(N)c(C(=O)O)c1,–,"inconclusive: 28.2 µM [inhibitor, partial curve, poor fit]"
Cc1cccc(NS(=O)(=O)c2ccc3[nH]c(=O)[nH]c3c2)c1C,–,"inconclusive: 6.31 µM [inhibitor, single point]"
CCOc1ccccc1NC(=O)CCNS(=O)(=O)c1cccc2nsnc12,–,"inconclusive: 35.5 µM [inhibitor, single point]"
COc1ccccc1CNc1ccc(-c2nc(-c3ccccn3)no2)cc1[N+](=O)[O-],–,"inconclusive: 3.16 µM [inhibitor, single point]"
CCOC(=O)c1c(NC(=O)c2ccc(S(=O)(=O)N3CCC(C)CC3)cc2)sc2c1CCN(C(C)C)C2,–,"inconclusive: 28.2 µM [inhibitor, single point]"
